{
  "sequences": {"note": "Sequences of proteins named here, by UniProt entry; tags and fusion partners are left off.", "UniProt Q969L2": "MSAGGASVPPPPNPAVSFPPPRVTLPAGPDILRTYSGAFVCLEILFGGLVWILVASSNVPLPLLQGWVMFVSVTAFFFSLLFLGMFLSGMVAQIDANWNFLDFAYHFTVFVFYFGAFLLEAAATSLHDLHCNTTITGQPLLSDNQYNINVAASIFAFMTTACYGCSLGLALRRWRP"},
  "source": "paper PMC11169275",
  "about": "“MAL2 reprograms lipid metabolism in intrahepatic cholangiocarcinoma via EGFR/SREBP-1 pathway based on single-cell RNA sequencing” (Cell Death & Disease, 2024)",
  "biological_target": "EGFR, flag-tagged (UniProt P00533)",
  "test": "co-IP; HEK293T cells transfected with HA-tagged MAL2 and flag-tagged EGFR, 24 h; IP lysis buffer with protease and phosphatase inhibitors; supernatant incubated overnight at 4 °C with protein G agarose beads and specific antibodies; washed three times with buffers of 300 and 150 mM NaCl; immunoblotting",
  "note": "These are yes or no findings as the source states them, for the method shown. Binding seen in cells or lysates may run through a third protein. Some results given as binding are weak or reduced against the parent protein; the word gives no strength.",
  "data": [
    {"substance": "mal, T cell differentiation protein 2 (MAL2), HA-tagged (from UniProt Q969L2 1-176)", "values": [
      {"measurement": "binding", "value": "binds"}
    ]}
  ]
}
